From PMC5448812, “Distinct DNA-binding surfaces in the ATPase and linker domains of MutLγ determine its substrate specificities and exert separable functions in meiotic recombination and mismatch repair” (PLoS Genetics, 2017) come the findings set out here.

For at least one entry, the source does not settle the construct or the ends of the probe. For some assays here: Weaker means in comparison with the reference protein, sequence or condition of that experiment. For some assays here: At least one verdict was read from the data and is not stated in words by the source.

Data set [1] has as its system HisFlag-Mlh1 + Mlh3. In words: FeBABE footprinting. Particulars: FeBABE-conjugated, recombinant protein, protein details: N-terminal 6xHis-2xFlag,none, label: 3'-biotin on strand 1, folded or branched DNA, letters put together from the description.
In data set [2] the test system is Mlh1 untagged + HisFlag-Mlh3. In words: FeBABE footprinting. Particulars: FeBABE-conjugated, recombinant protein, label: 3'-biotin on strand 1, folded or branched DNA, letters put together from the description.
Data set [3] relates to HisFlag-Mlh1 + Mlh3. The data set is described as follows: competition with a labelled probe. Particulars: EMSA: 25 mM Tris-HCl pH 7.5, 15% glycerol, 100 mM NaCl, 2 mM DTT, 5 mM EDTA, 1 mg/ml BSA, 30 min 30 C, 1 nM DNA, recombinant protein, protein details: N-terminal 6xHis-2xFlag,none.
In data set [4] the test system is MutLgamma double mutants (Mlh1 mutant + Mlh3 mutant) (Saccharomyces cerevisiae (S288c strain SKY4158)). In words: EMSA. Particulars: more affected than single mutants, EMSA: 25 mM Tris-HCl pH 7.5, 15% glycerol, 100 mM NaCl, 2 mM DTT, 5 mM EDTA, 1 mg/ml BSA, 30 min 30 C, 1 nM DNA, recombinant protein, protein details: N-terminal 6xHis-2xFlag on Mlh1, label: 5'-32P when used as probe. A general note: Mobility shift assays separate free from complexed probe on a gel.

The mark [5] stands for this setting: segment 2 probe, phosphorothioates in strands 2 and 3 (segment 2).

Take “CTAGTATAGAGCCGGCGCGCCATGTCTAGATAGCGTTAGGTCTGCCGAATAGTACTACTCGGATCCCGAGCGAACCACGC / GCGTGGTTCGCTCGGGATCCGAGTAGTACTATTCGGCAGAGGATTCGAATAGGCCTAATCGAATTCCGCCATCGATGCAC / GTGCATCGATGGCGGAATTCGATTAGGCCTATTCGAATCCAGACGCGAGTAGATCTTCACGGTACCCGCGGTTACCCGTG / CACGGGTAACCGCGGGTACCGTGAAGATCTACTCGCGTCTCCTAACGCTATCTAGACATGGCGCGCCGGCTCTATACTAG [HJ+2 (cb256, 349, 367, 98)]”: the binding result (with HisFlag-Mlh1 + Mlh3 [1] (setting [5]); in data set [2] (setting [5])) was “binds” each time.

For the sequence “TTTTTTTTTTTTTTTTTTTTTTTTTTTTTTTTTTTTTTTTTTTTTTTTTT [poly-dT 50 nt]”, the binding result with HisFlag-Mlh1 + Mlh3 [3] (vs labeled poly-dT 80 nt, single-stranded DNA) was “binds more weakly”.

On to “TTTTTTTTTTTTTTTTTTTTTTTTTTTTTTTTTTTTTTTTTTTTTTTTTTTTTTTTTTTTTTTTTTTTTTTTTTTTTTTT [ssDNA80 (cb099, poly-dT)]”, for which the binding result in data set [4] (single-stranded DNA) is reported as “binds more weakly”; in the data set on HisFlag-Mlh1 + Mlh3 [3] (cold ssDNA vs labeled HJ, label: 5'-32P when used as probe, single-stranded DNA), “binds more weakly”.

Consider “CTAGTATAGAGCCGGCGCGCCATGTCTAGATAGCGTTAGGTCTGCCGAATAGTACTACTCGGATCCCGAGCGAACCACGC / GCGTGGTTCGCTCGGGATCCGAGTAGTACTATTCGGCAGAGGATTCGAATAGGCCTAATCGAATTCCGCCATCGATGCAC / GTGCATCGATGGCGGAATTCGATTAGGCCTATTCGAATCCAGACGCGAGTAGATCTTCACGGTACCCGCGGTTACCCGTG / CACGGGTAACCGCGGGTACCGTGAAGATCTACTCGCGTCTCCTAACGCTATCTAGACATGGCGCGCCGGCTCTATACTAG [HJ80 (cb095-098)]”, for which the binding result in data set [4] (folded or branched DNA) was “binds more weakly”; in the data set on HisFlag-Mlh1 + Mlh3 [3] (cold HJ vs labeled ssDNA, label: 5'-32P when used as probe, folded or branched DNA), “binds more weakly”.

With “CTAGTATAGAGCCGGCGCGCCATGTCTAGATAGCGTTAGGTCTGCCGAATAGTACTACTCGGATCCCGAGCGAACCACGC / GCGTGGTTCGCTCGGGATCCGAGTAGTACTATTCGGCAGAGGATTCGAATAGGCCTAATCGAATTCCGCCATCGATGCAC / GTGCATCGATGGCGGAATTCGATTAGGCCTATTCGAATCCAGACGCGAGTAGATCTTCACGGTACCCGCGGTTACCCGTG / CACGGGTAACCGCGGGTACCGTGAAGATCTACTCGCGTCTCCTAACGCTATCTAGACATGGCGCGCCGGCTCTATACTAG [HJ+3 (cb256, 347, 365, 98)]”, the binding result in the data set with HisFlag-Mlh1 + Mlh3 [1] (segment 3 probe, cleavage decreases >~25 bp from HJ center, phosphorothioates in strands 2 and 3 (segment 3)) was “binds”; in data set [2] (segment 3 probe, phosphorothioates in strands 2 and 3 (segment 3)), “binds”.

As for “CTAGTATAGAGCCGGCGCGCCATGTCTAGATAGCGTTAGGTCTGCCGAATAGTACTACTCGGATCCCGAGCGAACCACGC / GCGTGGTTCGCTCGGGATCCGAGTAGTACTATTCGGCAGAGGATTCGAATAGGCCTAATCGAATTCCGCCATCGATGCAC / GTGCATCGATGGCGGAATTCGATTAGGCCTATTCGAATCCAGACGCGAGTAGATCTTCACGGTACCCGCGGTTACCCGTG / CACGGGTAACCGCGGGTACCGTGAAGATCTACTCGCGTCTCCTAACGCTATCTAGACATGGCGCGCCGGCTCTATACTAG [HJ+4 (cb256, 345, 363, 98)]”, the binding result with HisFlag-Mlh1 + Mlh3 [1] (segment 4 probe, cleavage decreases >~25 bp from HJ center, phosphorothioates in strands 2 and 3 (segment 4)) is reported as “binds”; in data set [2] (segment 4 probe, phosphorothioates in strands 2 and 3 (segment 4)), “binds”.
